What all share (conditions): 10 µM; pre-incubation: 30-90 min
For experiment [1], the system named is Danio rerio larvae (5 dpf, TLF). Put plainly: OMR-Perf (SSMD vs DMSO vehicle); higher = higher than vehicle (e.g. higher dark-flash O-bend response probability, or better optomotor performance).
The test system is the same in experiment [2]. As to the kind of experiment: Prob-Test (SSMD vs DMSO vehicle); higher = higher than vehicle (e.g. higher dark-flash O-bend response probability, or better optomotor performance).
Experiment [3] shares this test system. Put plainly: Prob-Naive (SSMD vs DMSO vehicle); higher = higher than vehicle (e.g. higher dark-flash O-bend response probability, or better optomotor performance).
For experiment [4] the test system is unchanged. Put plainly: Prob-Train (SSMD vs DMSO vehicle); higher = higher than vehicle (e.g. higher dark-flash O-bend response probability, or better optomotor performance).

Some of the results follow. Repeats in this data set agree poorly, so a single value says little.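 Free-swimming zebrafish larvae were assessed for O-bend response probability to dark flashes (naive: first five; training: remaining flashes across four 60-flash blocks; test: later 60-flash block) and for OMR turning toward alternating leftward/rightward LED motion. Six treated larvae were compared against sixty 0.1% DMSO controls; hits required |SSMD|≥2.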

As to `Cc1coc2c1C(=O)C(=O)c1c-2ccc2c(C)cccc12` [Tanshinone I], the OMR-Perf in experiment [1] was -0.336. In experiment [2], this molecule yielded a Prob-Test of -0.757. The molecule also returned a Prob-Naive in experiment [3] of -0.0234. Moreover, the Prob-Train in experiment [4] is -0.176.

`NS(=O)(=O)c1cc2c(cc1C(F)(F)F)NC(Cc1ccccc1)NS2(=O)=O` (configuration not stated) [Bendroflumethiazide] displayed an OMR-Perf in experiment [1] of -0.234. This molecule also showed a Prob-Test in experiment [2] of 0.0694. The same molecule displayed a Prob-Naive in experiment [3] of 0.163. For the same molecule, the Prob-Train in experiment [4] is -0.493.

On to `O=C(O)c1cc(=O)c2ccccc2o1` [Chromocarb], for which the OMR-Perf in experiment [1] is -0.047. In experiment [2], this molecule registered a Prob-Test of -0.358. In experiment [3], this molecule yielded a Prob-Naive of -0.481. In addition, in experiment [4], the Prob-Train is -0.472.

The molecule `CN1CCC(NC(=O)C2=CC(=C3C(O)=CC(=O)C=C3Oc3ccc([N+](=O)[O-])cc3)ON2)CC1` registered an OMR-Perf in experiment [1] of -0.0338. Also, the Prob-Test in experiment [2] worked out at 0.205. The molecule also returned a Prob-Naive in experiment [3] of 0.0243. Moreover, the Prob-Train in experiment [4] was 0.43.

As for `CO[C@H]1[C@@H](O[C@H]2O[C@@H](C)[C@H](O[C@@H]3C[C@](C)(O)[C@H](O)[C@@H](C)O3)[C@@H](N(C)C)[C@@H]2O)[C@@H](CC=O)C[C@@H](C)[C@@H](O[C@H]2CC[C@H](N(C)C)[C@H](C)O2)/C=C/C=C/C[C@@H](C)OC(=O)C[C@H]1O` [Spiramycin], in experiment [1], the OMR-Perf is -0.536. The Prob-Test in experiment [2] was found to be 0.596. In addition, in experiment [3], the Prob-Naive was -0.265. In addition, the Prob-Train in experiment [4] amounted to 0.538.

On to `O=C(Nc1cccc(C(F)(F)F)c1)Nc1cc(S(=O)(=O)NC2CC2)ccc1-c1ccsc1`, for which the OMR-Perf in experiment [1] amounted to 0.278. The Prob-Test in experiment [2] is -0.191. Moreover, in experiment [3], the Prob-Naive was -0.357. The Prob-Train in experiment [4] is -0.402.

Regarding `CO/N=C(\C(=O)N[C@H]1C(=O)N2C(C(=O)OCOC(=O)C(C)(C)C)=C(/C=C\c3scnc3C)CS[C@H]12)c1csc(N)n1` [Cefditoren Pivoxil], in experiment [1], the OMR-Perf came out at 0.0459. For the same molecule, the Prob-Test in experiment [2] was -0.00123. In experiment [3], this molecule had a Prob-Naive of 0.26. The Prob-Train in experiment [4] is 0.687.

With `CC(C)c1ccc(NC(=O)Cn2cnc3c2c(=O)n(C)c(=O)n3C)cc1`, the OMR-Perf in experiment [1] was -0.454. The Prob-Test in experiment [2] stood at 0.00401. The same molecule showed a Prob-Naive in experiment [3] of 0.232. In experiment [4], this molecule came in with a Prob-Train of 0.516.

The record behind these values is the supplement of paper PMC10727501.
